Measurements reported in PubChem BioAssay AID1259424 (University of Nebraska Medical Center, 2018)
Here is an unselected part of about 14,000 reagents. 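Higher correlation or smaller distance means closer resemblance to KSR1 loss; control wells, including KSR1 knockdowns, recur on many plates.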 Not given: the time to read-out.

Assay: 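Rank knockdowns across the genome by resemblance to the KSR1 depletion profile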 (primary screen)
System: human HCT116 colon cancer cells
Reagents: siRNA pool against human genes, 50 nM
Read-out: 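Log2 levels of six mRNAs (branched-DNA multiplex), adjusted by two reference genes and the non-targeting median, then scored against the average KSR1 knockdown pattern as Pearson r and euclidean distance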
Reading the numbers: mean correlation with KSR1 profile and KSR1 correlation: higher = expression change more like KSR1 knockdown; mean distance from KSR1 profile: higher = expression change less like KSR1 knockdown

| target | mean correlation with KSR1 profile | mean distance from KSR1 profile | KSR1 correlation, replicate 1 | KSR1 correlation, replicate 2 | KSR1 correlation, replicate 3 |
| --- | --- | --- | --- | --- | --- |
| C10orf95 (chromosome 10 open reading frame 95) | 0.153 | 2.11 | 0.138 | 0.324 | 0.0825 |
| GHRL (ghrelin and obestatin prepropeptide) | 0.202 | 3.05 | 0.219 | 0.0788 | 0.205 |
| GLI4 (GLI family zinc finger 4) | 0.113 | 1.98 | 0.416 | 0.139 | -0.00455 |
| ESPN (espin) | 0.287 | 3.97 | 0.387 | 0.107 | -0.0291 |
| ATP4A (ATPase H+/K+ transporting subunit alpha) | 0.0402 | 2.07 | 0.177 | 0.0678 | -0.282 |
| TRIM48 (tripartite motif containing 48) | 0.466 | 1.21 | -0.535 | -0.7 | 0.778 |
| MOCS3 (molybdenum cofactor synthesis 3) | 0.0941 | 2.33 | 0.139 | -0.0567 | -0.309 |
| BRD1 (bromodomain containing 1) | 0.405 | 0.899 | 0.557 | 0.338 | 0.147 |
| FXR1 (FMR1 autosomal homolog 1) | -0.191 | 1.84 | -0.125 | -0.178 | -0.0892 |
| EFEMP2 (EGF-like fibulin extracellular matrix protein 2) | -0.817 | 1.72 | -0.433 | -0.826 | -0.837 |
| JPH1 (junctophilin 1) | 0.179 | 1.09 | 0.159 | 0.752 | 0.169 |
| SCN4B (sodium voltage-gated channel beta subunit 4) | -0.249 | 2.17 | -0.296 | -0.313 | 0.0196 |
| TAPBP (TAP binding protein) | -0.0985 | 3.36 | -0.107 | -0.0387 | -0.273 |
| DESI2 (desumoylating isopeptidase 2) | -0.225 | 2.38 | -0.322 | -0.263 | 0.152 |
| LRRC36 (leucine rich repeat containing 36) | -0.249 | 2.3 | -0.341 | -0.322 | -0.102 |
| GON7 (GON7 subunit of KEOPS complex) | -0.133 | 1.14 | -0.38 | 0.0843 | 0.014 |
| B4GALNT1 (beta-1,4-N-acetyl-galactosaminyltransferase 1) | 0.25 | 3.36 | -0.0472 | 0.462 | 0.453 |
| SNX25 (sorting nexin 25) | 0.103 | 2.05 | -0.382 | 0.18 | 0.655 |
| ITPK1 (inositol-tetrakisphosphate 1-kinase) | 0.0696 | 2.74 | 0.249 | 0.185 | -0.137 |
| SRP72 (signal recognition particle 72) | -0.574 | 3 | -0.351 | -0.752 | -0.434 |
| AK9 (adenylate kinase 9) | 0.515 | 1.75 | 0.755 | 0.601 | -0.198 |
| ARHGAP22 (Rho GTPase activating protein 22) | 0.309 | 2.64 | 0.421 | 0.468 | 0.284 |
| ST6GAL2 (ST6 beta-galactoside alpha-2,6-sialyltransferase 2) | 0.525 | 1.69 | 0.518 | 0.277 | 0.332 |

6 entries from above, showing only “KSR1 correlation, replicate 3”:
B4GALNT1 (beta-1,4-N-acetyl-galactosaminyltransferase 1): 0.453
SNX25 (sorting nexin 25): 0.655
ITPK1 (inositol-tetrakisphosphate 1-kinase): -0.137
SRP72 (signal recognition particle 72): -0.434
AK9 (adenylate kinase 9): -0.198
ARHGAP22 (Rho GTPase activating protein 22): 0.284

Additional results:
| target | mean correlation with KSR1 profile | mean distance from KSR1 profile | KSR1 correlation, replicate 1 | KSR1 correlation, replicate 2 | KSR1 correlation, replicate 3 |
| --- | --- | --- | --- | --- | --- |
| SNAPC3 (small nuclear RNA activating complex polypeptide 3) | 0.769 | 0.979 | 0.886 | 0.558 | -0.0549 |
| PCDH11Y (protocadherin 11 Y-linked) | -0.0125 | 2.32 | -0.00803 | 0.0567 | -0.21 |
| PROX1 (prospero homeobox 1) | 0.648 | 2.93 | 0.675 | 0.435 | 0.592 |
| SUPT7L (SPT7 like, STAGA complex subunit gamma) | -0.019 | 1.54 | 0.125 | -0.17 | 0.0829 |
| MEAF6 (MYST/Esa1 associated factor 6) | -0.4 | 2.26 | -0.858 | -0.318 | -0.109 |
| DGKZ (diacylglycerol kinase zeta) | -0.719 | 5.23 | -0.804 | -0.774 | -0.638 |
| DMRT1 (doublesex and mab-3 related transcription factor 1) | -0.289 | 1.9 | -0.228 | 0.0596 | -0.316 |
| ST8SIA2 (ST8 alpha-N-acetyl-neuraminide alpha-2,8-sialyltransferase 2) | -0.226 | 2.8 | -0.194 | -0.0159 | -0.547 |
| ARL15 (ARF like GTPase 15) | -0.513 | 4.95 | -0.223 | -0.398 | 0.182 |
| GPS2 (G protein pathway suppressor 2) | 0.526 | 0.858 | 0.645 | 0.482 | 0.242 |
| DYRK1A | 0.914 | 0.644 | 0.942 | 0.839 | 0.578 |
| RTN2 (reticulon 2) | 0.0163 | 1.55 | 0.0862 | -0.222 | 0.254 |
| PLEKHG5 (pleckstrin homology and RhoGEF domain containing G5) | -0.127 | 2.41 | -0.11 | -0.114 | -0.163 |
| PNKD (PNKD metallo-beta-lactamase domain containing) | -0.371 | 2.07 | -0.659 | -0.592 | 0.455 |
| TLX2 (T cell leukemia homeobox 2) | -0.579 | 3.61 | -0.483 | -0.654 | -0.368 |
| DNAJB2 (DnaJ heat shock protein family (Hsp40) member B2) | -0.386 | 1.6 | -0.277 | -0.678 | -0.337 |
| FBXO24 (F-box protein 24) | -0.474 | 4.18 | -0.374 | -0.418 | -0.685 |
| ZFP69B (ZFP69 zinc finger protein B) | 0.604 | 1.29 | 0.385 | 0.254 | 0.503 |
| OSGEP (O-sialoglycoprotein endopeptidase) | -0.432 | 2.11 | -0.548 | -0.337 | -0.331 |
| NDRG2 (NDRG family member 2) | -0.259 | 1.49 | -0.282 | -0.791 | 0.375 |
| PRR14 (proline rich 14) | 0.295 | 1.96 | 0.267 | -0.148 | 0.137 |
| ISOC2 (isochorismatase domain containing 2) | 0.446 | 2 | 0.594 | 0.618 | 0.184 |
| FAABTP (fatty acid amide binding transmembrane protein) | -0.13 | 1.52 | -0.135 | -0.285 | -0.175 |
| HOXA3 (homeobox A3) | 0.284 | 1.74 | 0.236 | 0.241 | 0.263 |
| RIMS3 (regulating synaptic membrane exocytosis 3) | -0.292 | 1.96 | -0.328 | -0.219 | -0.237 |
| BCAP31 (B cell receptor associated protein 31) | -0.106 | 2.67 | -0.0491 | -0.136 | -0.106 |
| GZMA (granzyme A) | 0.794 | 0.539 | 0.85 | 0.686 | 0.806 |
